The test relates to MOLM14 cells. In words: alamarBlue cytotoxicity assay, single-drug IC50, 48 h. Format: cell-based. To be noted: Homo sapiens, MOLM-14. On the procedure: Peripheral wells were filled with sterile water to minimize the effects of evaporation. Plates were incubated for ˜48 hours at 37° C. with 5% CO2, then 1/10 volume (10 μl according to the manufacturer's instructions. Fluorescence was measured using a VICTOR X3 multilabel plate reader (PerkinElmer, Waltham, Mass.). Background fluorescence was subtracted from fluorescence of all experimental wells. The effect of each drug concentration on viability was calculated as a percentage of the result for vehicle-treated cells. […] IC50 (concentration that inhibits growth by 50%) values were calculated using CompuSyn software (ComboSyn, Paramus, N.J.). […] In Table 1, KOPN8 and MOLM14 cell lines were treated with a range of concentrations of each drug for 48 h then cytotoxicity was measured via alamarBlue assay. Results were normalized to cells treated with vehicle (≦0.5% DMSO) alone. IC50s were calculated using CompuSyn software and represent the means of at least three experiments performed in triplicate. […] Drug interactions were typically most favorable (more additive/synergistic or less antagonistic) at higher doses.

Regarding `CO[C@@H]1[C@H](N(C)C(=O)c2ccccc2)C[C@H]2O[C@]1(C)n1c3ccccc3c3c4c(c5c6ccccc6n2c5c31)C(=O)NC4` [MID, midostaurin], the 50% inhibitory concentration (IC50) stood at 11 nM.

Source of the values: US9918972B2, “Treatment of leukemia with artemisinin derivatives and combinations with other antineoplastic agents” (UNIVERSITY OF MARYLAND, BALTIMORE, priority 2014, dated 2018).
